The source of these data is patent publication US20260079169A1, “VOLATILE ORGANIC COMPOUNDS AS MARKERS FOR CELLULAR COMMUNICATION” (Technion Research and Development Foundation Limited, priority 2020, published 2026).

No dose or concentration is given here for some results.

Series [1] deals with A549, H1299, H1975 human lung cancer lines and BEAS-2B normal cell line, each cultured alone. Description: VOCs headspace analysis (ITEX GC-MS) of mono-culture groups (Format-1), bulk cell samples 1×10^4 cells. In kind it is cell-based. The settings on record: for VOC level in headspace, area under curve (AUC) normalized by STD AUC: bulk 1 × 10^4 cell.
Series [2] relates to different-cell pairs of BEAS-2B, A549, H1299, H1975 without physical contact under a mutual headspace. Description: VOCs headspace analysis (ITEX GC-MS) of different-cell pair co-culture headspace groups (Format-3), bulk cell samples. In kind it is cell-based, human. Also on record: key to Category (VOC increased or decreased relative to the control): ↑: Increased; ↓: decreased; ↑*: <0.01; ↑**: <0.001. The settings on record: for VOC level in headspace, area under curve (AUC) normalized by STD AUC: bulk 1 × 10^4 cell.

Consider `CC(=O)c1ccccc1` [VOC16], for which the “VOC level in headspace, area under curve (AUC) normalized by STD AUC” value (“VOC level … (AUC) normalized by STD AUC” for short) is listed as 0 in series [1] (A (BEAS-2B) mono-culture); 0 in series [1] (B (A549) mono-culture); 0 in series [1] (C (H1299) mono-culture); 6.624 in series [1] (D (H1975) mono-culture); 7.573 in series [2] (A + B (BEAS-2B + A549)); 7.246 in series [2] (A + C (BEAS-2B + H1299)). In addition, the “VOC level … (AUC) normalized by STD AUC” value in series [2] (A + D (BEAS-2B + H1975)) came to 8.052; in series [2] (B + C (A549 + H1299)) it was 5.827; in series [2] (B + D (A549 + H1975)), 0; in series [2] (C + D (H1299 + H1975)), 0.
Consider `CCOC(=O)c1ccc(OCC)cc1` [VOC32], for which the “VOC level … (AUC) normalized by STD AUC” value in series [1] (A (BEAS-2B) mono-culture) turned out to be 0; in series [1] (B (A549) mono-culture), 0; in series [1] (C (H1299) mono-culture) it was 7.6306; in series [1] (D (H1975) mono-culture), 0; in series [2] (A + B (BEAS-2B + A549)) it was 0; in series [2] (A + C (BEAS-2B + H1299)), 1.898. In addition, the “VOC level … (AUC) normalized by STD AUC” value is 0 in series [2] (A + D (BEAS-2B + H1975)), 3.411 in series [2] (B + C (A549 + H1299)), 0 in series [2] (B + D (A549 + H1975)) and 2.638 in series [2] (C + D (H1299 + H1975)).
As to `c1cc[nH]c1` [Pyrrole], the “Category (VOC increased or decreased relative to the control)” value is “↑* (↑*: <0.01)” in series [1] (mono-culture groups (Format-1), 48 h incubation, averaged peak area (n = 3)) and “↑” in series [2] (different-cell pair co-culture headspace (Format-3), 72 h, averaged peak area (n = 3)).
`CCCC(O)C(CC)COC(=O)C(C)C` (stereo not shown) [VOC74]: the “VOC level … (AUC) normalized by STD AUC” value in series [1] (A (BEAS-2B) mono-culture) stood at 0; in series [1] (B (A549) mono-culture), 5.99; in series [1] (C (H1299) mono-culture), 0; in series [1] (D (H1975) mono-culture) it was 0; in series [2] (A + B (BEAS-2B + A549)), 3.298; in series [2] (A + C (BEAS-2B + H1299)), 0. The “VOC level … (AUC) normalized by STD AUC” value in series [2] (A + D (BEAS-2B + H1975)) came to 0; in series [2] (B + C (A549 + H1299)) it was 0.9397; in series [2] (B + D (A549 + H1975)), 0; in series [2] (C + D (H1299 + H1975)) it was 0.
Regarding `Cc1ccc(CO)cc1` [VOC62], the “VOC level … (AUC) normalized by STD AUC” value in series [1] (A (BEAS-2B) mono-culture) amounted to 3.841; in series [1] (B (A549) mono-culture), 3.718; in series [1] (C (H1299) mono-culture), 0; in series [1] (D (H1975) mono-culture) it was 3.213; in series [2] (A + B (BEAS-2B + A549)), 0; in series [2] (A + C (BEAS-2B + H1299)) it was 0. In addition, the “VOC level … (AUC) normalized by STD AUC” value in series [2] (A + D (BEAS-2B + H1975)) was determined as 3.442; in series [2] (B + C (A549 + H1299)) it was 0; in series [2] (B + D (A549 + H1975)), 1.475; in series [2] (C + D (H1299 + H1975)), 0.
As to `CC(C)(C)c1ccc(C(C)(C)C)c(O)c1` [VOC61], the “VOC level … (AUC) normalized by STD AUC” value is reported as 5.058 in series [1] (A (BEAS-2B) mono-culture); 6.818 in series [1] (B (A549) mono-culture); 0 in series [1] (C (H1299) mono-culture); 0 in series [1] (D (H1975) mono-culture); 3.194 in series [2] (A + B (BEAS-2B + A549)); 4.011 in series [2] (A + C (BEAS-2B + H1299)). Further, the “VOC level … (AUC) normalized by STD AUC” value in series [2] (A + D (BEAS-2B + H1975)) came out at 3.337; in series [2] (B + C (A549 + H1299)) it was 0; in series [2] (B + D (A549 + H1975)), 0; in series [2] (C + D (H1299 + H1975)) it was 0.
